In patent US20210244750A1, “COMPOSITION FOR INCREASING PERMEABILITY OF BLOOD-BRAIN BARRIER COMPRISING NITRIC OXIDE DONOR AND USE THEREOF” (POSTECH Research and Business Development Foundation, priority 2020, published 2021):
At least one compound was matched to its structure with a doubt left.

System: blood-brain barrier
Assay: Verification of permeation through blood-brain barrier using Evans blue
Type: in vivo, Balb/c mice

## [Na+].[O-]/N=[N+](\[O-])N1CCCC1 [nitric oxide donor, pyrrolidine NONOate]
UV-Vis absorbance at 610 nm, compared with 100 mg/mL mannitol positive control, mice, IV, 90 minutes, FIG. 6
  amount of Evans blue accumulated in the brain (blood-brain barrier permeability): disintegrated the blood-brain barrier much more efficiently than 100 mg/mL of mannitol
eight-week old Balb/c mice, 100 μL nitric oxide donor (varied concentration) and 100 μL 2 wt % Evans blue IV separately, brain extracted after 90 minutes, after perfusion, FIG. 5
  staining of the extracted brain by Evans blue dye (blood-brain barrier permeation): permeated through the blood-brain barrier and into the deep part of the brain
